{"source": "PubChem BioAssay AID602196 – INSERM | 2012", "aim": "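Modifiers of cisplatin sensitivity in A549 cells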", "system": "human A549 lung cancer cells", "reagent": "siRNA pair against human genes", "timing": "48 h transfection before cisplatin; time from cisplatin to read-out not stated", "challenge": "cisplatin at a dose killing half of control-siRNA cells; exact dose and duration not given", "detection": "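Cisplatin cell death as a shift from the 50% death seen with control siRNA; siRNAs toxic or growth-blocking alone scored 0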", "reading the numbers": "two-siRNA summed score (-2 to +2): higher = both siRNAs protect from cisplatin killing; -2 means both sensitise", "call rule": "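Each siRNA scores 0 if harmful alone by LDH or WST-1, otherwise +1 if it reduces and -1 if it increases cisplatin killing; a gene is active when both siRNAs agree (sum +2 or -2)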", "calls": "active = both siRNAs shift cisplatin killing the same way; inactive = no consistent shift, or siRNA harmful alone", "note": "Shown is an unselected part of about 23,000 reagents tested. Of all reagents, 455 (2%) are marked active. 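Active includes both protection and sensitisation; some change values fall well beyond the stated -50 to +50 range.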 Further read-outs or replicates are left out here. Not stated in the record: the amount of reagent."}
{"gene": "OR4K2", "two-siRNA summed score (-2 to +2)": 0, "activity call": "inactive"}
{"gene": "PIGW", "two-siRNA summed score (-2 to +2)": -1, "activity call": "inactive"}
{"gene": "FKBP9P1", "two-siRNA summed score (-2 to +2)": 1, "activity call": "inactive"}
{"gene": "LOC143506", "two-siRNA summed score (-2 to +2)": 1, "activity call": "inactive"}
{"gene": "RP9", "two-siRNA summed score (-2 to +2)": 0, "activity call": "inactive"}
{"gene": "LOC440586", "two-siRNA summed score (-2 to +2)": 1, "activity call": "inactive"}
{"gene": "ANKRD20A19P", "two-siRNA summed score (-2 to +2)": -1, "activity call": "inactive"}
{"gene": "SIGLECL1", "two-siRNA summed score (-2 to +2)": 0, "activity call": "inactive"}
{"gene": "KIF5C", "two-siRNA summed score (-2 to +2)": 0, "activity call": "inactive"}
{"gene": "LOC440357", "two-siRNA summed score (-2 to +2)": 0, "activity call": "inactive"}
{"gene": "ITIH2", "two-siRNA summed score (-2 to +2)": 0, "activity call": "inactive"}
{"gene": "SEC11C", "two-siRNA summed score (-2 to +2)": 0, "activity call": "inactive"}
{"gene": "SLC25A13", "two-siRNA summed score (-2 to +2)": 0, "activity call": "inactive"}
{"gene": "LOC387816", "two-siRNA summed score (-2 to +2)": 1, "activity call": "inactive"}
{"gene": "LOC401204", "two-siRNA summed score (-2 to +2)": 0, "activity call": "inactive"}
{"gene": "FAM225B", "two-siRNA summed score (-2 to +2)": 0, "activity call": "inactive"}
{"gene": "PAFAH1B2", "two-siRNA summed score (-2 to +2)": 1, "activity call": "inactive"}
{"gene": "LOC149281", "two-siRNA summed score (-2 to +2)": 0, "activity call": "inactive"}
{"gene": "SEZ6", "two-siRNA summed score (-2 to +2)": 0, "activity call": "inactive"}
{"gene": "SLC17A8", "two-siRNA summed score (-2 to +2)": 0, "activity call": "inactive"}
{"gene": "ZNF594", "two-siRNA summed score (-2 to +2)": 0, "activity call": "inactive"}
{"gene": "NF1", "two-siRNA summed score (-2 to +2)": 0, "activity call": "inactive"}
{"gene": "LOC442037", "two-siRNA summed score (-2 to +2)": 1, "activity call": "inactive"}
{"gene": "SH2D3C", "two-siRNA summed score (-2 to +2)": 0, "activity call": "inactive"}
{"gene": "MGAT5", "two-siRNA summed score (-2 to +2)": 0, "activity call": "inactive"}
{"gene": "CDH9", "two-siRNA summed score (-2 to +2)": 0, "activity call": "inactive"}
{"gene": "COMMD4P1", "two-siRNA summed score (-2 to +2)": 0, "activity call": "inactive"}
{"gene": "EIF3J", "two-siRNA summed score (-2 to +2)": 0, "activity call": "inactive"}
{"gene": "JUP", "two-siRNA summed score (-2 to +2)": 0, "activity call": "inactive"}
{"gene": "GDI2", "two-siRNA summed score (-2 to +2)": 0, "activity call": "inactive"}
{"gene": "LOC401625", "two-siRNA summed score (-2 to +2)": 1, "activity call": "inactive"}

Part of the list above, set out differently.
gene | two-siRNA summed score (-2 to +2) | activity call
FAM225B | 0 | inactive
PAFAH1B2 | 1 | inactive
LOC149281 | 0 | inactive
